# Assay results: the supplement of paper PMC8728848
# This is one part of the list.
# B1: SspB C123 (Streptococcus gordonii), Q54186 (protein)
# chain: MAHFHYSSLLAQPQINKEIKNEDGVDIDRTLVAKQSIGKFELKTEALTAGRPKTTSFVLVDPLPTGYKFDLDATKAASTGFDTTYDEASHTVTFKATDETLATYNADLTKPVETLHPTVVGRVLNDGATYTNNFTLTVNDAYGIKSNVVRVTTPGKPNDPDNPNNNYIKPTKVNKNKEGLNIDGKEVLAGSTNYYELTWDLDQYKGDKSSKEAIQNGFYYVDDYPEEALDVRPDLVKVADEKGNQVSGVSVQQYDSLEAAPKKVQDLLKKANITVKGAFQLFSADNPEEFYKQYVSTGTSLVITDPMTVKSEFGKTGGKYENKAYQIDFGNGYATEVVVNNVPKITPKKDVTVSLDPTSENLDGQTVQLYQTFNYRLIGGFIPQNHSEELEDYSFVDDYDQAGDQYTGNYKTFSSLNLTMKDGSVIKAGTDLTSQTTAETDATNGIVTVRFKEDFLQKISLDSPFQAETYLQMRRIAIGTFENTYVNTVNKVAYASAAALEHHHHHH
# Assays:
# Experiment in all cases: glycan array binding signal (z-score within array); higher = stronger binding
# Settings in all cases: glycan notation: IUPAC condensed, linker removed
# [1] = target: Fuc(a1-3)[Gal3S(b1-4)]GlcNAc6S
# Outline: (§1)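 Columns mapping to the same glycan were averaged after glycan names were converted to IUPAC-condensed notation. The data come from 3228 arrays in the Consortium for Functional Glycomics database, limited to those with an available protein sequence. Binding is reported as a within-array Z-score averaged across arrays of one protein sequence and across linkers.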
# [2] = target: Fuc(a1-3)[GalNAc(b1-4)]GlcNAc
# Outline: as §1
# [3] = target: Fuc(a1-3)[GalNAc(b1-4)]GlcNAc6S
# Outline: as §1
# Fuc(a1-4)GlcNAc = target: Fuc(a1-4)GlcNAc
# Outline: as §1
# Fuc(b1-3)GlcNAc = target: Fuc(b1-3)GlcNAc
# Outline: as §1
# Gal(a1-2)Gal = target: Gal(a1-2)Gal
# Outline: as §1
# Gal(a1-3)Gal = target: Gal(a1-3)Gal
# Outline: as §1
# Gal(a1-3)Gal(b1-3)GlcNAc = target: Gal(a1-3)Gal(b1-3)GlcNAc
# Outline: as §1
# [4] = target: Gal(a1-3)Gal(b1-3)GlcNAc(b1-2)Man
# Outline: as §1
# [5] = target: Gal(a1-3)Gal(b1-3)GlcNAc(b1-2)Man(a1-3)[Gal(a1-3)Gal(b1-3)GlcNAc(b1-2)Man(a1-6)]Man(b1-4)GlcNAc(b1-4)GlcNAc
# Outline: as §1
# [6] = target: Gal(a1-3)Gal(b1-3)GlcNAc(b1-3)GalNAc
# Outline: as §1
# [7] = target: Gal(a1-3)Gal(b1-3)GlcNAc(b1-6)GalNAc
# Outline: as §1
# [8] = target: Gal(a1-3)Gal(b1-3)[Fuc(a1-4)]GlcNAc(b1-2)Man(a1-3)[Gal(a1-3)Gal(b1-3)[Fuc(a1-4)]GlcNAc(b1-2)Man(a1-6)]Man(b1-4)GlcNAc(b1-4)GlcNAc
# Outline: as §1
# Gal(a1-3)Gal(b1-4)Glc = target: Gal(a1-3)Gal(b1-4)Glc
# Outline: as §1
# Gal(a1-3)Gal(b1-4)GlcNAc = target: Gal(a1-3)Gal(b1-4)GlcNAc
# Outline: as §1
# [9] = target: Gal(a1-3)Gal(b1-4)GlcNAc(b1-2)Man
# Outline: as §1
# [10] = target: Gal(a1-3)Gal(b1-4)GlcNAc(b1-2)Man(a1-3)[Gal(a1-3)Gal(b1-4)GlcNAc(b1-2)Man(a1-6)]Man(b1-4)GlcNAc(b1-4)GlcNAc
# Outline: as §1
# [11] = target: Gal(a1-3)Gal(b1-4)GlcNAc(b1-3)GalNAc
# Outline: as §1
# [12] = target: Gal(a1-3)Gal(b1-4)GlcNAc(b1-6)GalNAc
# Outline: as §1
# [13] = target: Gal(a1-3)Gal(b1-4)[Fuc(a1-3)]GlcNAc
# Outline: as §1
# [14] = target: Gal(a1-3)Gal(b1-4)[Fuc(a1-3)]GlcNAc(b1-2)Man(a1-3)[Gal(a1-3)Gal(b1-4)[Fuc(a1-3)]GlcNAc(b1-2)Man(a1-6)]Man(b1-4)GlcNAc(b1-4)GlcNAc
# Outline: as §1
# Gal(a1-3)GalNAc = target: Gal(a1-3)GalNAc
# Outline: as §1
# [15] = target: Gal(a1-3)[Gal(a1-4)]Gal(b1-4)GlcNAc
# Outline: as §1
# [16] = target: Gal(a1-4)Gal(b1-3)GlcNAc(b1-2)Man(a1-3)[Gal(a1-4)Gal(b1-3)GlcNAc(b1-2)Man(a1-6)]Man(b1-4)GlcNAc(b1-4)GlcNAc
# Outline: as §1
# Gal(a1-4)Gal(b1-4)Glc = target: Gal(a1-4)Gal(b1-4)Glc
# Outline: as §1
# Gal(a1-4)Gal(b1-4)GlcNAc = target: Gal(a1-4)Gal(b1-4)GlcNAc
# Outline: as §1
# [17] = target: Gal(a1-4)Gal(b1-4)GlcNAc(b1-2)Man(a1-3)[Gal(a1-4)Gal(b1-4)GlcNAc(b1-2)Man(a1-6)]Man(b1-4)GlcNAc(b1-4)GlcNAc
# Outline: as §1
# [18] = target: Gal(a1-4)Gal(b1-4)GlcNAc(b1-3)Gal(b1-4)Glc
# Outline: as §1
# Gal(a1-4)GlcNAc = target: Gal(a1-4)GlcNAc
# Outline: as §1
# Gal(a1-6)Glc = target: Gal(a1-6)Glc
# Outline: as §1
# Gal(b1-2)Gal = target: Gal(b1-2)Gal
# Outline: as §1
# Gal(b1-3)Gal = target: Gal(b1-3)Gal
# Outline: as §1
# Gal(b1-3)Gal(b1-4)GlcNAc = target: Gal(b1-3)Gal(b1-4)GlcNAc
# Outline: as §1
# Gal(b1-3)GalNAc = target: Gal(b1-3)GalNAc
# Outline: as §1
# [19] = target: Gal(b1-3)GalNAc(a1-3)[Fuc(a1-2)]Gal(b1-4)Glc
# Outline: as §1
# [20] = target: Gal(b1-3)GalNAc(a1-3)[Fuc(a1-2)]Gal(b1-4)GlcNAc
# Outline: as §1
# Gal(b1-3)GalNAc(b1-3)Gal = target: Gal(b1-3)GalNAc(b1-3)Gal
# Outline: as §1
binder,measurement,setting,value
B1,glycan array binding signal (z-score),[1],0.017
same,glycan array binding signal (z-score),[2],0.959
same,glycan array binding signal (z-score),[3],-0.976
same,glycan array binding signal (z-score),Fuc(a1-4)GlcNAc,-0.101
same,glycan array binding signal (z-score),Fuc(b1-3)GlcNAc,-0.111
same,glycan array binding signal (z-score),Gal(a1-2)Gal,1.61
same,glycan array binding signal (z-score),Gal(a1-3)Gal,-0.024
same,glycan array binding signal (z-score),Gal(a1-3)Gal(b1-3)GlcNAc,-1.06
same,glycan array binding signal (z-score),[4],-0.562
same,glycan array binding signal (z-score),[5],1.52
same,glycan array binding signal (z-score),[6],0.045
same,glycan array binding signal (z-score),[7],-0.238
same,glycan array binding signal (z-score),[8],0.65
same,glycan array binding signal (z-score),Gal(a1-3)Gal(b1-4)Glc,-0.162
same,glycan array binding signal (z-score),Gal(a1-3)Gal(b1-4)GlcNAc,-1.14
same,glycan array binding signal (z-score),[9],-0.109
same,glycan array binding signal (z-score),[10],0.697
same,glycan array binding signal (z-score),[11],-0.133
same,glycan array binding signal (z-score),[12],-0.267
same,glycan array binding signal (z-score),[13],0.396
same,glycan array binding signal (z-score),[14],0.441
same,glycan array binding signal (z-score),Gal(a1-3)GalNAc,0.07
same,glycan array binding signal (z-score),[15],1.5
same,glycan array binding signal (z-score),[16],-1.06
same,glycan array binding signal (z-score),Gal(a1-4)Gal(b1-4)Glc,0.734
same,glycan array binding signal (z-score),Gal(a1-4)Gal(b1-4)GlcNAc,0.07
same,glycan array binding signal (z-score),[17],0.315
same,glycan array binding signal (z-score),[18],-0.079
same,glycan array binding signal (z-score),Gal(a1-4)GlcNAc,-0.961
same,glycan array binding signal (z-score),Gal(a1-6)Glc,-0.129
same,glycan array binding signal (z-score),Gal(b1-2)Gal,-0.199
same,glycan array binding signal (z-score),Gal(b1-3)Gal,1.54
same,glycan array binding signal (z-score),Gal(b1-3)Gal(b1-4)GlcNAc,-1.16
same,glycan array binding signal (z-score),Gal(b1-3)GalNAc,-0.084
same,glycan array binding signal (z-score),[19],-0.787
same,glycan array binding signal (z-score),[20],-0.075
same,glycan array binding signal (z-score),Gal(b1-3)GalNAc(b1-3)Gal,0.717

# As a short view, some entries already given.
binder,measurement,setting,value
B1,glycan array binding signal (z-score),Fuc(a1-4)GlcNAc,-0.101
same,glycan array binding signal (z-score),Fuc(b1-3)GlcNAc,-0.111
same,glycan array binding signal (z-score),Gal(a1-2)Gal,1.61
